Measured values taken from PMC9105235.
These are yes or no findings as the source states them, for the method shown. Binding seen in cells or lysates may run through a third protein. Here binding means that the protein was enriched with, or labelled near, the bait; the list need not be complete.

Assays:
[1] = molecular target: PrC-CUL3-WT (human) (UniProt Q13618); assay: affinity purification with mass spectrometry; PrC-CUL3-WT or PrC-CUL3-∆9 precipitated with HPC4-sepharose overnight at 4 °C from lysates of tetracycline-induced Flp-In T-REx 293 cells (50 mM HEPES pH 7.5, 150 mM NaCl, 0.5% Nonidet P-40, 2 mM CaCl2); label-free LC-MS/MS, two independent experiments, empty vector as control
[2] = molecular target: PrC-CUL3-∆9 (human) (UniProt Q13618); assay: as above

| Binder | binding [1] | binding [2] |
| --- | --- | --- |
| BTBD1 (protein, UniProt Q9H0C5 1-482) MASLGPAAAGEQASGAEAEPGPAGPPPPPSPSSLGPLLPLQREPLYNWQATKASLKERFAFLFNSELLSDVRFVLGKGRGAAAAGGPQRIPAHRFVLAAGSAVFDAMFNGGMATTSAEIELPDVEPAAFLALLRFLYSDEVQIGPETVMTTLYTAKKYAVPALEAHCVEFLTKHLRADNAFMLLTQARLFDEPQLASLCLDTIDKSTMDAISAEGFTDIDIDTLCAVLERDTLSIRESRLFGAVVRWAEAECQRQQLPVTFGNKQKVLGKALSLIRFPLMTIEEFAAGPAQSGILSDREVVNLFLHFTVNPKPRVEYIDRPRCCLRGKECCINRFQQVESRWGYSGTSDRIRFTVNRRISIVGFGLYGSIHGPTDYQVNIQIIEYEKKQTLGQNDTGFSCDGTANTFRVMFKEPIEILPNVCYTACATLKGPDSHYGTKGLKKVVHETPAASKTVFFFFSSPGNNNGTSIEDGQIPEIIFYT | binds | binds |
| ZBTB10 (protein, UniProt Q96DT7 1-871) MSFSEMNRRTLAFRGGGLVTASGGGSTNNNAGGEASAWPPQPQPRQPPPPAPPALQPPNGRGADEEVELEGLEPQDLEASAGPAAGAAEEAKELLLPQDAGGPTSLGGGAGGPLLAERNRRTLAFRGGGGGGLGNNGSSRGRPETSVWPLRHFNGRGPATVDLELDALEGKELMQDGASLSDSTEDEEEGASLGDGSGAEGGSCSSSRRSGGDGGDEVEGSGVGAGEGETVQHFPLARPKSLMQKLQCSFQTSWLKDFPWLRYSKDTGLMSCGWCQKTPADGGSVDLPPVGHDELSRGTRNYKKTLLLRHHVSTEHKLHEANAQESEIPSEEGYCDFNSRPNENSYCYQLLRQLNEQRKKGILCDVSIVVSGKIFKAHKNILVAGSRFFKTLYCFSNKESPNQNNTTHLDIAAVQGFSVILDFLYSGNLVLTSQNAIEVMTVASYLQMSEVVQTCRNFIKDALNISIKSEAPESVVVDYNNRKPVNRDGLSSSRDQKIASFWATRNLTNLASNVKIENDGCNVDEGQIENYQMNDSSWVQDGSPEMAENESEGQTKVFIWNNMGSQGIQETGKTRRKNQTTKRFIYNIPPNNETNLEDCSVMQPPVAYPEENTLLIKEEPDLDGALLSGPDGDRNVNANLLAEAGTSQDGGDAGTSHDFKYGLMPGPSNDFKYGLIPGTSNDFKYGLIPGASNDFKYGLLPESWPKQETWENGESSLIMNKLKCPHCSYVAKYRRTLKRHLLIHTGVRSFSCDICGKLFTRREHVKRHSLVHKKDKKYKCMVCKKIFMLAASVGIRHGSRRYGVCVDCADKSQPGGQEGVDQGQDTEFPRDEEYEENEVGEADEELVDDGEDQNDPSRWDESGEVCMSLDD | binds | binds |
| KLHL24 (protein, UniProt Q6TFL4 1-600) MVLILGRRLNREDLGVRDSPATKRKVFEMDPKSLTGHEFFDFSSGSSHAENILQIFNEFRDSRLFTDVIICVEGKEFPCHRAVLSACSSYFRAMFCNDHRESREMLVEINGILAEAMECFLQYVYTGKVKITTENVQYLFETSSLFQISVLRDACAKFLEEQLDPCNCLGIQRFADTHSLKTLFTKCKNFALQTFEDVSQHEEFLELDKDELIDYICSDELVIGKEEMVFEAVMRWVYRAVDLRRPLLHELLTHVRLPLLHPNYFVQTVEVDQLIQNSPECYQLLHEARRYHILGNEMMSPRTRPRRSTGYSEVIVVVGGCERVGGFNLPYTECYDPVTGEWKSLAKLPEFTKSEYAVCALRNDILVSGGRINSRDVWIYNSQLNIWIRVASLNKGRWRHKMAVLLGKVYVVGGYDGQNRLSSVECYDSFSNRWTEVAPLKEAVSSPAVTSCVGKLFVIGGGPDDNTCSDKVQSYDPETNSWLLRAAIPIAKRCITAVSLNNLIYVAGGLTKAIYCYDPVEDYWMHVQNTFSRQENCGMSVCNGKIYILGGRRENGEATDTILCYDPATSIITGVAAMPRPVSYHGCVTIHRYNEKCFKL | binds | binds |
| KLHL28 (protein, UniProt Q9NXS3 1-571) MDHTSPTYMLANLTHLHSEQLLQGLNLLRQHHELCDIILRVGDVKIHAHKVVLASVSPYFKAMFTGNLSEKENSEVEFQCIDETALQAIVEYAYTGTVFISQDTVESLLPAANLLQIKLVLKECCAFLESQLDPGNCIGISRFAETYGCRDLYLAATKYICQNFEAVCQTEEFFELTHADLDEIVSNDCLNVATEETVFYALESWIKYDVQERQKYLAQLLNSVRLPLLSVKFLTRLYEANHLIRDDRTCKHLLNEALKYHFMPEHRLSHQTVLMTRPRCAPKVLCAVGGKSGLFACLDSVEMYFPQNDSWIGLAPLNIPRYEFGICVLDQKVYVIGGIATNVRPGVTIRKHENSVECWNPDTNTWTSLERMNESRSTLGVVVLAGELYALGGYDGQSYLQSVEKYIPKIRKWQPVAPMTTTRSCFAAAVLDGMIYAIGGYGPAHMNSVERYDPSKDSWEMVASMADKRIHFGVGVMLGFIFVVGGHNGVSHLSSIERYDPHQNQWTVCRPMKEPRTGVGAAVIDNYLYVVGGHSGSSYLNTVQKYDPISDTWLDSAGMIYCRCNFGLTAL | binds | binds |
| KLHL5 (protein, UniProt Q96PQ7 1-755) MNVIYFPLHIFVVYSRAYTSLVLVGCTNLCAVLFARCLDDHLVSLRMSGSRKEFDVKQILKIRWRWFGHQASSPNSTVDSQQGEFWNRGQTGANGGRKFLDPCSLQLPLASIGYRRSSQLDFQNSPSWPMASTSEVPAFEFTAEDCGGAHWLDRPEVDDGTSEEENESDSSSCRTSNSSQTLSSCHTMEPCTSDEFFQALNHAEQTFKKMENYLRHKQLCDVILVAGDRRIPAHRLVLSSVSDYFAAMFTNDVREARQEEIKMEGVEPNSLWSLIQYAYTGRLELKEDNIECLLSTACLLQLSQVVEACCKFLMKQLHPSNCLGIRSFADAQGCTDLHKVAHNYTMEHFMEVIRNQEFVLLPASEIAKLLASDDMNIPNEETILNALLTWVRHDLEQRRKDLSKLLAYIRLPLLAPQFLADMENNVLFRDDIECQKLIMEAMKYHLLPERRPMLQSPRTKPRKSTVGTLFAVGGMDSTKGATSIEKYDLRTNMWTPVANMNGRRLQFGVAVLDDKLYVVGGRDGLKTLNTVECYNPKTKTWSVMPPMSTHRHGLGVAVLEGPMYAVGGHDGWSYLNTVERWDPQARQWNFVATMSTPRSTVGVAVLSGKLYAVGGRDGSSCLKSVECFDPHTNKWTLCAQMSKRRGGVGVTTWNGLLYAIGGHDAPASNLTSRLSDCVERYDPKTDMWTAVASMSISRDAVGVCLLGDKLYAVGGYDGQAYLNTVEAYDPQTNEWTQVAPLCLGRAGACVVTVKL | binds | binds |
| ZBTB14 (protein, UniProt O43829 1-449) MEFFISMSETIKYNDDDHKTLFLKTLNEQRLEGEFCDIAIVVEDVKFRAHRCVLAACSTYFKKLFKKLEVDSSSVIEIDFLRSDIFEEVLNYMYTAKISVKKEDVNLMMSSGQILGIRFLDKLCSQKRDVSSPDENNGQSKSKYCLKINRPIGDAADTQDDDVEEIGDQDDSPSDDTVEGTPPSQEDGKSPTTTLRVQEAILKELGSEEVRKVNCYGQEVESMETPESKDLGSQTPQALTFNDGMSEVKDEQTPGWTTAASDMKFEYLLYGHHREQIACQACGKTFSDEGRLRKHEKLHTADRPFVCEMCTKGFTTQAHLKEHLKIHTGYKPYSCEVCGKSFIRAPDLKKHERVHSNERPFACHMCDKAFKHKSHLKDHERRHRGEKPFVCGSCTKAFAKASDLKRHENNMHSERKQVTPSAIQSETEQLQAAAMAAEAEQQLETIACS | binds | binds |
| ZBTB21 (protein, UniProt Q9ULJ3 1-1066) MEGLLHYINPAHAISLLSALNEERLKGQLCDVLLIVGDQKFRAHKNVLAASSEYFQSLFTNKENESQTVFQLDFCEPDAFDNVLNYIYSSSLFVEKSSLAAVQELGYSLGISFLTNIVSKTPQAPFPTCPNRKKVFVEDDENSSQKRSVIVCQSRNEAQGKTVSQNQPDVSHTSRPSPSIAVKANTNKPHVPKPIEPLHNLSLTEKSWPKDSSVVYAKSLEHSGSLDDPNRISLVKRNAVLPSKPLQDREAMDDKPGVSGQLPKGKALELALKRPRPPVLSVCSSSETPYLLKETNKGNGQGEDRNLLYYSKLGLVIPSSGSGSGNQSIDRSGPLVKSLLRRSLSMDSQVPVYSPSIDLKSSQGSSSVSSDAPGNVLCALSQKSSLKDCSEKTALDDRPQVLQPHRLRSFSASQSTDREGASPVTEVRIKTEPSSPLSDPSDIIRVTVGDAATTAAASSSSVTRDLSLKTEDDQKDMSRLPAKRRFQADRRLPFKKLKVNEHGSPVSEDNFEEGSSPTLLDADFPDSDLNKDEFGELEGTRPNKKFKCKHCLKIFRSTAGLHRHVNMYHNPEKPYACDICHKRFHTNFKVWTHCQTQHGIVKNPSPASSSHAVLDEKFQRKLIDIVREREIKKALIIKLRRGKPGFQGQSSSQAQQVIKRNLRSRAKGAYICTYCGKAYRFLSQFKQHIKMHPGEKPLGVNKVAKPKEHAPLASPVENKEVYQCRLCNAKLSSLLEQGSHERLCRNAAVCPYCSLRFFSPELKQEHESKCEYKKLTCLECMRTFKSSFSIWRHQVEVHNQNNMAPTENFSLPVLDHNGDVTGSSRPQSQPEPNKVNHIVTTKDDNVFSDSSEQVNFDSEDSSCLPEDLSLSKQLKIQVKEEPVEEAEEEAPEASTAPKEAGPSKEASLWPCEKCGKMFTVHKQLERHQELLCSVKPFICHVCNKAFRTNFRLWSHFQSHMSQASEESAHKESEVCPVPTNSPSPPPLPPPPPLPKIQPLEPDSPTGLSENPTPATEKLFVPQESDTLFYHAPPLSAITFKRQFMCKLCHRTFKTAFSLWSHEQTHN | binds | binds |
| ZBTB1 (protein, UniProt Q9Y2K1 1-713) MAKPSHSSYVLQQLNNQREWGFLCDCCIAIDDIYFQAHKAVLAACSSYFRMFFMNHQHSTAQLNLSNMKISAECFDLILQFMYLGKIMTAPSSFEQFKVAMNYLQLYNVPDCLEDIQDADCSSSKCSSSASSKQNSKMIFGVRMYEDTVARNGNEANRWCAEPSSTVNTPHNREADEESLQLGNFPEPLFDVCKKSSVSKLSTPKERVSRRFGRSFTCDSCGFGFSCEKLLDEHVLTCTNRHLYQNTRSYHRIVDIRDGKDSNIKAEFGEKDSSKTFSAQTDKYRGDTSQAADDSASTTGSRKSSTVESEIASEEKSRAAERKRIIIKMEPEDIPTDELKDFNIIKVTDKDCNESTDNDELEDEPEEPFYRYYVEEDVSIKKSGRKTLKPRMSVSADERGGLENMRPPNNSSPVQEDAENASCELCGLTITEEDLSSHYLAKHIENICACGKCGQILVKGRQLQEHAQRCGEPQDLTMNGLGNTEEKMDLEENPDEQSEIRDMFVEMLDDFRDNHYQINSIQKKQLFKHSACPFRCPNCGQRFETENLVVEHMSSCLDQDMFKSAIMEENERDHRRKHFCNLCGKGFYQRCHLREHYTVHTKEKQFVCQTCGKQFLRERQLRLHNDMHKGMARYVCSICDQGNFRKHDHVRHMISHLSAGETICQVCFQIFPNNEQLEQHMDVHLYTCGICGAKFNLRKDMRSHYNAKHLKRT | binds | binds |
